Experimental data reported in US20260103513A1.
Results are given in words; binding and its absence hold for the method and conditions named. Some results given as binding are weak or reduced against the parent protein; the word gives no strength.

Amino acid sequences for entries named in this document (tags omitted). Residues count along the entry.
UniProt Q495A1, residues 22-141: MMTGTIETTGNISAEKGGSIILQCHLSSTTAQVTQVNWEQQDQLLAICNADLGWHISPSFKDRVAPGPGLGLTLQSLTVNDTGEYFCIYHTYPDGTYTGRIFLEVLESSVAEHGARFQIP

How the values were obtained:
[1] = target: Human TIGIT-His tag fusion protein (human) (UniProt Q495A1); test: competition ELISA on coated TIGIT-His; blocked ligand CD155-Biotin; the sheet does not name the species of the TIGIT-His
[2] = target: Cynomolgus monkey TIGIT-His tag fusion protein (cynomolgus monkey); test: ELISA, cynomolgus TIGIT-His coated, HRP anti-human IgG, OD450
[3] = target: Human TIGIT-His tag fusion protein (human) (UniProt Q495A1); test: ELISA, human TIGIT-His coated, HRP anti-human IgG, OD450
[4] = target: Cynomolgus monkey TIGIT-His tag fusion protein (cynomolgus monkey); test: ELISA, TIGIT-His coated; comparator, weaker than H401LV2
[5] = target: Human TIGIT-His tag fusion protein (human) (UniProt Q495A1); test: as above

binding [1]: binds | binding [2]: binds | binding [3]: binds | binding [4]: binds | binding [5]: binds
B1: Hu4A501 (antibody, V domains shown)
VH: QVQLQESGPGLVKPSQTLSLTCTVTGSSITSDYAWNWIRQFPGKKLEWMGYITYSGRTTYNPSLKSRITISRDTSKNQFSLKLSSVTAADTATYYCARWGLLRRYFDYWGQGTLLTVSS
VL: DIVMTQSPSSMSTSVGDRVTITCRASQDVFTAVAWYQQKPGKSPKLLIYSASFRYTGVPDRFSGSGSGTDFTFTISSVQAEDFATYYCQQHYSTPLTFGAGTKLELKR
